Among all 31,000 sequences or so, about 1,400 (4.5%) were called active.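 The calls were made as follows: active = median seed-adjusted z-score above 1 or below -1; inactive = the rest.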 The list shows a part of the results.
Test: Novel Modifiers of Survival Motor Neuron (SMN) Protein: Gene Identification via Genome-wide siRNA Screen;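 also: luminescence tracks full-length SMN protein made from the SMN2 reporter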
Settings: HEK293T SMN2-luciferase reporter, siRNA knockdown, 72 h; actives lie on both sides
Method in brief: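 Steps: spot 1 pmol siRNA, add Lipofectamine RNAiMax in serum-free DMEM, seed HEK293T SMN2–luciferase reporter cells; incubate 72 h at 37 °C; add ONE-Glo; normalize luminescence to control siRNA, log10, MAD. Candidates: |MAD| > 1.0.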

Sequence	median seed-adjusted z-score
UGUCAGCUGCAUAAAGAGATT against LTF	inactive: 0.236
GCCUAUCUCCAAAAUCUGATT against MYH1	inactive: -0.567
GAAACGAUGCCCAAUCUUATT against LRRTM2	inactive: 0.508
GCGACUCCUAGAGAACAAATT against LSG1	active: 1.31
CUACCUUACCUGAACGUAUTT against C1GALT1	inactive: -0.394
GAAAGAUAUUCCUUACUUUTT against RAB7B	inactive: 0
GUUCAGGAGUUAUCGAACATT against IFIH1	inactive: 0.419
GUAUUUGAAUCACCACAAATT against ZNF692	inactive: 0.556
GCAACGUGAUCAAAGGUAUTT against GNA13	inactive: 0
GGUCAAUUCAGUGAAGAUATT against ARL8B	inactive: -0.477
GCAAGAUCAUGAACCACGATT against CDC42BPG	inactive: 0.153
GCAGUUUACUGUUGCGUUUTT against RAB35	inactive: 0.317
GAGCUGAUCUACAAAGAAUTT against PDE2A	inactive: -0.2
GCAGCUCCACGAGACCUUUTT against WFDC1	inactive: 0.152
AGAAGUACGAGGCACUGUATT against APBB3	inactive: -0.299
GCACAUCAGUGGAGUGUUUTT against IFT140	inactive: -0.0152
GCUCCAACCUCGAAGUAGATT against ACVR2B	inactive: 0.824
CAAAUCUGAGCAAUACAUATT against ACCN2	inactive: -0.597
GAAUUCGCUUCAUCCAUUUTT against POMT2	inactive: -0.614
GCUAUGGUCUGAUCCAGAUTT against PPP1CB	inactive: -0.81
GAUAGUGACUCGGAUCUUATT against RPH3AL	inactive: 0.21
GCAGUUGUAUAAAGGUGCATT against FBXO11	inactive: 0.733

Sequence	median seed-adjusted z-score
UCAUUUACCGAGACCUGAATT against RPS6KA4	inactive: 0.193
CAACCACAAUGUUCGUAAATT against GBF1	inactive: -0.162
GCAUCGAGGUUGGCAAGAATT against NME3	inactive: -0.0125
GUGUCUCUGCUCUAAGUAATT against B4GALT1	inactive: 0
CGAGUGUGGUUACAGAGGATT against GPT2	inactive: 0.0268
CCUCCAUUCUUAACCUCUUTT against HRH2	inactive: -0.257
CAGAAGAAAUAGGCAAGAATT against SMAP2	inactive: -0.0114
AGAAUUCCGUGAACAGUCATT against TGM3	inactive: 0.257
AGGACAUUUCUAUAUGUAUTT against RGPD5	inactive: -0.0931
GCAUUGACCUAGUGAUUAATT against CPS1	inactive: -0.247
GCAAGAAGAUUGACCUGGATT against KIF2B	inactive: 0.226
GGACUAAAAGAAGACUAUATT against CHUK	inactive: -0.613
GCGGAGAUCAGAUUAGUCATT against NCL	active: 1.33
GGGUCAAAGAAUUACGGAATT against RAB21	inactive: 0.544
CGUCAUCCCUCAACAAGAATT against ATP2B2	active: 1.37
AUUACACGGUGGACAGUAATT against LHX4	inactive: 0.0795
UUCACGCCCUUGACACUAATT against ZNF579	inactive: -0.0604
GUUCCAGUAUGGGAAUUAUTT against MEPCE	inactive: -0.35
CUAAUAACAGGGUACAGUATT against ZNF238	inactive: -0.491
CAAAGCCUCUUUAUUCUUUTT against PTBP1	inactive: 0.578
CGAAUAACCUUUAGUGAGATT against CATSPER4	inactive: -0.669
UGACAGUGCUGUUUUAUUUTT against P4HTM	inactive: -0.257

Sequence	median seed-adjusted z-score
CCCAAACUCCUCUACUGUATT against FGF1	inactive: 0.415
CGUCGGCCUUCAUCAGGAATT against OTUB2	inactive: 0.513
GGACUAAGUGAAGAGCUUATT against NFYB	inactive: -0.29
CGAUUGAUGUACAGCUAUATT against FBXO4	inactive: -0.0767
GUCAACCACGUGUCCCUUATT against SSTR4	inactive: -0.00217
GAACAUUUCCAAGUCUGUATT against YSK4	inactive: -0.181
GUAUGAGAGUGACGAGAAATT against ALPL	inactive: -0.229
GUGACUCGCUAUUAUUUUATT against TFPI2	inactive: 0.519
GGCGUAUCCUGGAUCUAAATT against ARNT	inactive: -0.244
GGCCGUGGAUCAUCACUAUTT against FLJ16165	inactive: -0.404
GGUGAGUGUUUGAAUACCATT against LTBP1	inactive: 0.143
GCAGGUCCGAGGUUACUGATT against KRT19	inactive: 0.0661
CACCCUAGGUGUUGCUGGATT against P2RY11	inactive: 0.211
AUUGCACGGCUGAACCUGATT against NINJ2	inactive: 0.133
CACAAGCAAGUUCAAAUAATT against FCRL4	inactive: -0.39
CCAUGACUUCCAGAGCAUATT against CNKSR1	inactive: 0.217
CAGCUGAUGCGGACCAAGATT against RASSF4	inactive: 0.29
GAAUAUUGUGGGUAAUGCUTT against PHF20	inactive: 0.138
CAGAUUAUGAUGAUCAAAATT against E2F8	inactive: 0.209
GCAUGGUGGUGCUACUUCATT against ZNF324B	inactive: 0.176
GCCUGUGAAGUGAACCUGATT against TMPRSS6	active: 1.29
GGAUAAAGAUCCUCCCAUUTT against PDIA4	inactive: -0.499

3 entries drawn at random from the list so far:
Sequence	median seed-adjusted z-score
CAGCUGAUGCGGACCAAGATT against RASSF4	inactive: 0.29
GAACAUUUCCAAGUCUGUATT against YSK4	inactive: -0.181
GUAUGAGAGUGACGAGAAATT against ALPL	inactive: -0.229

Additional results

Sequence	median seed-adjusted z-score
GGACUACAGCGGACAAGGATT against WDR1	inactive: -0.457
GAUAGGUUGCUGACUUUUATT against S100A2	inactive: -0.0951
GCUGACAUCCGGUUCGUCUTT against TIMP1	inactive: -0.0422
CGAAUAGAUUGUUCUAUGATT against NR1D2	inactive: 0.0523
CCAAAGCUCGGAUAGGAGATT against GABARAP	inactive: 0.418
CUACCACGCAGUCAACCUUTT against LTB4R2	inactive: -0.26
GCUGGAAGAUUACACGCCUTT against TAF10	inactive: -0.587
GGAUGAAGGCUUCAUCAAATT against KCNA10	inactive: 0.00887
CAAACUCAGUCUGAACUUATT against ADORA3	inactive: 0
GGAUCCCUAUUUUAGGACATT against MTMR10	inactive: 0.144
GGAGAUAUCCUAUAUCAAUTT against OXSM	inactive: 0.22
CUAUAAAUGUAAACGAUGUTT against ZNF442	active: 1.06
GAAAUCCAGUUUGACGAUATT against EIF1AY	inactive: 0.00168
CCAAACGAUUUAUACCUAATT against IPMK	inactive: -0.00138
CGAUACUACAUGCUCAACATT against SNX5	inactive: -0.141
GCAGGCUUCUGUAACAUUATT against RPP38	inactive: 0.07
ACCUACUUCUCCCACCUGGTT against HBQ1	inactive: -0.578
CGUUUGACAAGACCACCAATT against VAV2	inactive: 0.975
GCUUCAGUGUGAGCAAGGATT against E4F1	inactive: 0.698
ACAUCAACUAUUACAGGCATT against ERAF	inactive: 0.0453
GCAAAGAUCUAAGCAUGAUTT against SERPINB3	inactive: -0.373
CCGUCAAAGUGAUCAACAATT against IKZF3	inactive: 0.0181

Sequence	median seed-adjusted z-score
GCAUCCUUGUGUACAUGUGTT against USP41	inactive: 0.808
GGACCAUCAUGUUCUACAATT against C1R	inactive: -0.541
CAACGUAUCAGAUUGAGAATT against ZNF281	active: 1.19
GCCCUUCCCUGAUUUUGUUTT against DPYSL2	inactive: -0.569
CGUGAUCUCAAGUCCAACATT against MAP3K11	inactive: 0.773
GAUGCUAUGGAAUACCAUATT against METTL4	inactive: 0.244
GAACUGAGGUUGUGAUGAATT against CPNE4	inactive: -0.0933
CCCAAUUUAUGACAACCGUTT against REL	inactive: -0.358
GCAUGGUUGAAGAAACGCATT against DNAH8	inactive: 0
AGGUUUGGCUCAACUCUGATT against P2RX2	inactive: 0.0454
CCUAUGUUCUCUACCAUGATT against AQP10	inactive: -0.09
GGCAUAAACUUCGACAAAUTT against DDX4	inactive: -0.136
CCAAUGUCCCGGGAGUUUATT against PPM1J	inactive: -0.901
GACUAGUUGUGAUUUGCUATT against KCNE4	inactive: 0.0795
GCUGACUACUUGAAGUUCATT against DYRK1A	active: -1.3
GAUGAAGAGAGAUACGACATT against TNNI3	inactive: 0.516
GCCUCUUCUUCGUCUUUGATT against ZDHHC18	inactive: -0.309
GAAGCUUGGUGUUGCCUAUTT against ADAM20	inactive: 0.0167
GAAGGGAGCAUGUAGCUAATT against 7-Sep	inactive: -0.00715
